Experimental data taken from PubChem BioAssay AID720495 (Broad Institute, 2013).
The inconclusive results got no clear call from the source.

Amino acid sequences for entries named in this document (tags omitted). A change or cut given only in a name is not applied to a line headed by its entry.
UniProt P42568: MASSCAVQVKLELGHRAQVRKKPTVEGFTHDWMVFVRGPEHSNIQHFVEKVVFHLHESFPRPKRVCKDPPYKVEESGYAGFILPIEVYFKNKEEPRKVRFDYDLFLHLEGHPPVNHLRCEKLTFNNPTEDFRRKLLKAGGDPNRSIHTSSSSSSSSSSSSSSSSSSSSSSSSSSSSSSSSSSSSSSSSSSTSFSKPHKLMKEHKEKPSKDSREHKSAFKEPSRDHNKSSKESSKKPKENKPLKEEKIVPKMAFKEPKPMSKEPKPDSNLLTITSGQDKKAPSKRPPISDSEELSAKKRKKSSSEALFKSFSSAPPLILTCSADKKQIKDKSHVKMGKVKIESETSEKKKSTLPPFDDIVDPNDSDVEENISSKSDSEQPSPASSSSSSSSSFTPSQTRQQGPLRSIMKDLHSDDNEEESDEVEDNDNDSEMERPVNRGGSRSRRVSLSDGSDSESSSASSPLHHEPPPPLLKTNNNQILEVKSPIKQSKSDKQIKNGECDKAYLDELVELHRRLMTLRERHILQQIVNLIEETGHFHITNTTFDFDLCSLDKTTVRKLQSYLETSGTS

Molecular target: Protein AF-9 (Homo sapiens) (UniProt P42568)
Test: AF9 binding to AF4 blockers, potency – biochemical, cherry-picked samples, plate reader, dose response (AID 720495)
Details: biochemical protein-protein interaction assay; at 10 µM (top of the series); call rule not given here

Compound	activity change, negative = inhibition
O=C(O)c1cccc2c1NC(c1cccc([N+](=O)[O-])c1)C1CC(Sc3ccccc3[N+](=O)[O-])C(Cl)C21 (configuration not stated)	inconclusive: -5.24%
O=C(CCN1CC1)OCCOC(=O)CCN1CC1	inconclusive: -70%
